From PubChem BioAssay AID493014 (National Center for Advancing Translational Sciences (NCATS), 2011) come the findings set out here.

Some of the results follow. Shown are side measurements of this screen, not its main read-out; they come without a call. Compounds called inactive in the main read-out are mostly missing here. Potencies come from curve fits of mixed quality, noted in brackets.

The nature of this assay: qHTS Assay to Find Inhibitors of Chronic Active B-Cell Receptor Signaling. The note with it: ABC-DLBCL IkBa-CBG/CBR reporter, luminescence ratio (green luciferase fused to IkBa over red control in TMD8 lymphoma cells), 4 h. The method, boiled down:
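Cell line TMD8 (human ABC DLBCL), stably expressing tet-inducible CBG68-IkBa fusion and CBR; IMDM/0.5% FBS; cpd up to 46 uM; dox induction, 4 h, 37C/5% CO2; dual luminescence; green/red ratio; MG132 control.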
(qHTS replaces the single test concentration by a dilution series.)

Where [1] appears, read: measured here: CBR red luminescence, cell number.
The mark [2] stands for this setting: measured here: IkBa-CBG green luminescence.

Broadly, the AC50 is the concentration giving half of the maximal activity seen. Take `COc1ccc(-c2nn(-c3ccccc3)cc2/C=C2/SC(=S)N(CCC(=O)O)C2=O)cc1`: the AC50 under setting [1] was 14.1 µM [rising, single point]. Turning to `Cn1c2ccsc2c2ncn(Cc3ccccc3F)c(=O)c21`, under setting [1], the AC50 is 10.3 µM [rising, partial curve, poor fit]. As for `Cc1cccc(C)c1Nc1c(-c2ccccn2)nc2ccccn12`, under setting [1], the AC50 is 12.6 µM [falling, partial curve, poor fit]. Regarding `Cc1cccc(C)c1NS(=O)(=O)c1ccc(-c2cnc(C3CC3)o2)cc1`, the AC50 is, setting by setting: under setting [1], 1.12 µM [rising, full curve, poor fit]; under setting [2], 1.26 µM [falling, full curve].

On to `COc1ccc(OC)c(-c2cc(C(=O)Nc3cccc(Cl)c3)no2)c1`, for which, under setting [1], the AC50 was 0.282 µM [falling, full curve, poor fit]. `O=C(NC(NC(=O)c1ccccc1)C(=O)c1ccccc1)c1ccccc1`: the concentration at half-maximal activity (AC50) under setting [1] was 0.0411 µM [rising, full curve, poor fit]. As for `O=C(N/N=C/c1ccccc1)c1[nH]c2ccc(Br)cc2c1-c1ccccc1`, the half-maximal activity concentration (AC50) under setting [1] is 1.64 µM [rising, full curve] and the half-maximal activity concentration (AC50) under setting [2] is 2.59 µM [falling, full curve].

For `Cc1ccc(CNC(=O)C2CCC(=O)N(Cc3ccc(Cl)cc3)C2)cc1F` (configuration not stated), the AC50 under setting [1] was 14.1 µM [falling, single point].

On to `O=C(Nc1ccc2c(c1)OCCO2)c1ccc(Cl)c(S(=O)(=O)N2CCCCC2)c1`, for which the AC50 under setting [1] is 23.1 µM [falling, single point].

Regarding `O=C(CCCn1c(=O)[nH]c2cc(Cl)ccc2c1=O)NCCCN1CCN(c2ccc(F)cc2)CC1`, the AC50 under setting [1] was 4.47 µM [falling, full curve]. Turning to `COc1cccc(/C=C2/Oc3ccccc3N(CC(=O)NCC3CCCO3)C2=O)c1` (configuration not stated), the AC50 under setting [1] was 5.01 µM [rising, full curve, poor fit]. Turning to `Nc1cccc(CCc2nc3cc4ccccc4cc3[nH]2)c1`, the AC50 reads like this: under setting [1], 23.1 µM [falling, partial curve]; under setting [2], 20.6 µM [falling, single point].

With `CN(C)S(=O)(=O)Oc1ccsc1C(=O)Nc1ccc(Cl)c(Cl)c1`, under setting [1], the AC50 is 35.5 µM [falling, single point].

Regarding `Cc1cc(C(=O)NCCCN2CCCC2=O)no1`, under setting [1], the AC50 is 1.64 µM [rising, partial curve]. For `Cc1cc(C)cc(NC(=O)C2CCN(c3cnccn3)CC2)c1`, under setting [1], the concentration at half-maximal activity (AC50) was 17.8 µM [falling, partial curve, poor fit]. Regarding `COCCOC(=O)c1[nH]c2c(c1C)C(=O)CC(c1ccccc1)C2` (configuration not stated), the AC50 was 3.26 µM [rising, full curve] under setting [1] and 2.91 µM [falling, full curve] under setting [2]. Take `COc1ccc(CNC(=O)Cn2c(=O)n3nc(-c4cccc(F)c4)nc3c3ccccc32)cc1OC`: under setting [1], the AC50 is 35.5 µM [rising, single point].

Turning to `c1ccc(-c2cc(-c3nnc4n3N=C(c3ccc5ccccc5c3)CS4)[nH]n2)cc1`, the concentration at half-maximal activity (AC50) reads like this: under setting [1], 2.59 µM [rising, partial curve, poor fit]; under setting [2], 2.59 µM [falling, full curve]. For `Cc1ccc(C)c(-n2nnnc2SCC(=O)Nc2c(C)n(C)n(-c3ccccc3)c2=O)c1`, under setting [1], the AC50 is 3.66 µM [falling, single point].

On to `COc1ccc(/C=N/NC(=O)c2cc(-c3ccccc3OC(C)C)nc3ccccc23)cc1CN1CCOCC1`, for which the half-maximal activity concentration (AC50) under setting [1] is 29.1 µM [falling, single point]. For `O=C(NNC(=O)c1cccs1)c1ccc(Cl)c([N+](=O)[O-])c1`, under setting [1], the AC50 is 7.31 µM [falling, partial curve]. `O=C1c2cnc3nc(SCc4ccc(Cl)cc4)nn3c2CC2c3ccccc3CCN12` (configuration not stated): under setting [1], the AC50 is 3.16 µM [rising, partial curve].

Turning to `Cc1ccc(-c2nc3cccnc3s2)cc1NS(=O)(=O)c1ccc2c(c1)CCCC2`, the AC50 under setting [2] was 20.6 µM [falling, single point]. Regarding `CC(C)=NOc1nc(N(C)C)nc(N2CCOCC2)n1`, the AC50 under setting [1] is 22.4 µM [rising, single point].

For `COc1ccc(NC(=O)COc2cccc3c2CCNC3=O)cc1`, the AC50 under setting [1] was 25.9 µM [rising, single point]. As to `Cc1ccc(S(=O)(=O)N(C)C)cc1-n1c(SCC(=O)Nc2ccc(F)cc2Cl)nc2ccccc2c1=O`, the AC50 under setting [1] is 6.51 µM [rising, full curve, poor fit].

Turning to `N#C/C(=C\c1ccccc1[N+](=O)[O-])C(=O)NCc1ccccc1`, the AC50 under setting [1] was 17.8 µM [falling, single point]. `COc1ccc2c(c1)O/C(=C\c1ccco1)C2=O`: under setting [1], the AC50 is 15.8 µM [falling, partial curve, poor fit]. For `O=C(N/N=C/C(Br)=C/c1ccccc1)NC1CCCCC1`, the concentration at half-maximal activity (AC50) under setting [2] is 14.1 µM [falling, single point]. With `CCc1ccc2nc3sc(C(=O)Nc4nnc(CC)s4)c(N)c3cc2c1`, the AC50 under setting [1] was 11.2 µM [falling, single point]. As for `CCCN1CCN(C(=O)CCCn2c(C)c3cnn(-c4ccccc4)c(=O)c3c2C)CC1`, under setting [1], the AC50 was 18.4 µM [falling, single point]. On the same count and under the same terms, to `O=C1CCC/C(=N\NC(=O)c2ccc(NS(=O)(=O)c3ccc(Br)cc3)cc2)C1` belongs 23.1 µM [falling, partial curve]; to `Cc1ccc(NC(=O)CNC(=O)c2cccs2)nc1`, 20.6 µM [falling, partial curve]. On to `CC1CCc2c(sc(NC(=O)COC(=O)C3CCCO3)c2C#N)C1` (configuration not stated), for which the concentration at half-maximal activity (AC50) under setting [1] is 15.8 µM [rising, partial curve, poor fit]. Take `Cc1cccc(N2C(=O)CC(N3CCN(C(=O)c4ccccc4)CC3)C2=O)c1` (configuration not stated): the half-maximal activity concentration (AC50) under setting [1] is 23.1 µM [rising, partial curve]. Regarding `COc1ccc(-n2nnnc2S(=O)(=O)Cc2ccc(C(=O)O)cc2)cc1`, the concentration at half-maximal activity (AC50) is 5.8 µM [falling, full curve] under setting [1] and 6.51 µM [rising, full curve, poor fit] under setting [2]. For `O=C(/C(C=Nc1ccc(F)cc1)=C(/O)c1ccco1)C(F)(F)F`, the AC50 under setting [1] is 20.6 µM [falling, single point]. On to `O=C(N/N=C/c1ccc2c(c1)OCO2)c1ccc(COCC(F)(F)C(F)F)cc1`, for which the AC50 under setting [1] is 35.5 µM [rising, single point]. On to `CC(=O)c1ccc(N2CCN(C(=O)c3cc(-c4ccc5c(c4)OCO5)nc4ccccc34)CC2)cc1`, for which, under setting [1], the AC50 was 8.2 µM [falling, partial curve, poor fit]. Still for that read-out and setting: the same measure for `COc1cc2nc(Nc3ccc(C)c(C)c3)nc(N)c2cc1OC`: 35.5 µM [falling, single point]. For `CC(=O)c1ccc(NC(=S)NNC(=O)NC2CCCCC2)cc1`, the AC50 under setting [1] was 5.62 µM [falling, partial curve, poor fit]. As for `O=C(CSc1nnnn1-c1ccc(F)cc1)Nc1ccccc1F`, the AC50 under setting [1] is 20 µM [falling, single point]. For `Cc1ccnc(NC(=S)NC(=O)c2ccco2)c1`, the AC50 under setting [1] is 11.2 µM [falling, partial curve]. As for `CCc1nnc(NC(=O)COC(=O)CN2C(=O)c3ccccc3C2=O)s1`, the AC50 under setting [1] was 1 µM [rising, full curve]. For `CCOC(=O)CN1C(=O)/C(=C/c2ccc(Cl)cc2)Oc2ccccc21`, the AC50 under setting [1] was 5.62 µM [rising, single point].

For the compound `Cc1cnc(NC(=O)c2ccc3c(c2)OCCO3)s1`, the AC50 under setting [1] is 3.26 µM [falling, full curve, poor fit]. On to `COc1ccc(C2CC(c3ccccc3Br)=NN2c2ccc(S(N)(=O)=O)cc2)cc1` (configuration not stated), for which the AC50 under setting [2] is 18.4 µM [falling, partial curve, poor fit].

With `O=c1c2c(nc3c(-c4ccc(Cl)cc4)c[nH]n13)CCC2`, the AC50 under setting [1] is 10 µM [falling, partial curve]. `O=C(c1ccco1)N1CCC(c2nc3c(nnn3Cc3c(Cl)cccc3Cl)c(=O)[nH]2)CC1`: the AC50 under setting [1] was 11.2 µM [falling, partial curve, poor fit]. As for `COc1ccc(S(=O)(=O)Cc2ccc(C(=O)N3CCN(c4cc(Cl)ccc4C)CC3)o2)cc1`, the half-maximal activity concentration (AC50) under setting [1] was 4.61 µM [falling, partial curve, poor fit]. For `Cc1ccc(/C=C/c2nc3ccccc3n2S(=O)(=O)c2cccc(Cl)c2)cc1`, the concentration at half-maximal activity (AC50) under setting [1] is 3.55 µM [falling, full curve].

Take `Cc1cccc(OCCNc2cc(N3CCOCC3)ccc2[N+](=O)[O-])c1`: under setting [1], the half-maximal activity concentration (AC50) was 0.366 µM [rising, full curve, poor fit]. The same measure, in the same setting: the same measure for `CC(CC(=O)NCc1ccc(Cl)cc1Cl)CC1=NS(=O)(=O)c2ccccc2N1` (configuration not stated): 35.5 µM [falling, single point]. Same read-out and setting: the same measure for `COc1ccc(CCN2CC(C(=O)NCc3nc4ccccc4n3C)CCC2=O)cc1` (configuration not stated): 35.5 µM [falling, single point]; for `O=C(COC(=O)C1CC(=O)N(Cc2ccco2)C1)Nc1ccc(F)cc1F` (configuration not stated): 29.1 µM [rising, single point]. Same read-out and setting: the same measure for `COc1ccc(NC(=O)Nc2ccccc2F)cc1`: 2.31 µM [falling, full curve]. As to `COCCN1C(=O)/C(=C/c2ccc(OCc3ccc(C(=O)O)cc3)c(OC)c2)SC1=Nc1ccccc1`, the AC50 under setting [1] was 0.58 µM [falling, partial curve, poor fit]. The same measure, in the same setting: the same measure for `Cc1ccnc(NC(=O)C2CC(=O)N(Cc3ccccc3)C2)c1` (configuration not stated): 25.9 µM [falling, partial curve]; for `CC(C)NS(=O)(=O)c1ccc(NC(=O)C(C)Oc2ccc(C(=O)c3ccccc3)cc2)cc1` (configuration not stated): 8.2 µM [falling, partial curve, poor fit]; for `CCN1CCN(Cc2nnc(-c3ccccc3)o2)CC1`: 2.24 µM [falling, partial curve]. For `O=c1cc(-c2cccc(F)c2)[nH]c2ccccc12`, under setting [2], the AC50 was 11.6 µM [falling, partial curve].
